# Cleaved PARP in drug-treated melanoma cells

All values are for the listed drug together with lapatinib (4 µM): CS(=O)(=O)CCNCc1ccc(-c2ccc3ncnc(Nc4ccc(OCc5cccc(F)c5)c(Cl)c4)c3c2)o1

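The test systems are human melanoma cell lines, treated with two drugs together for 72 h and then stained and imaged. Values are the share of nuclei positive for cleaved PARP as a percentage of the same share in the DMSO control: 100 is the control level, higher means more apoptosis. Every drug was used at one fixed concentration, the higher of two screened. No replicate spread is given; individual values may be noisy. The marker varies much from line to line, for technical or biological reasons.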
Only some of the drugs and lines screened are listed, without regard to their results.
A dash means that no value is listed here.

| # | Second drug | MeWo | WM1745 | G-361 | WM3619 | WM115 | UACC-62 |
|---|---|---|---|---|---|---|---|
| 1 | COC(=O)c1sccc1S(=O)(=O)Nc1ccc(Nc2ccccc2)cc1OC at 5 µM | 132 | - | 194 | 122 | 52.9 | 283 |
| 2 | C[C@]1(O)C[C@@H](c2nc(-c3ccc4ccc(-c5ccccc5)nc4c3)c3c(N)nccn32)C1 at 2 µM | 159 | 147 | 145 | 126 | 176 | 408 |
| 3 | Cn1cc(/C=C2\C(=O)Nc3cccnc32)c2ccccc21 at 2 µM | 63.3 | - | 52.5 | 121 | 190 | 377 |
| 4 | Oc1cc(-c2nc(-c3ccccc3)[nH]c2-c2ccncc2)ccc1Cl at 1 µM | 83.1 | - | 112 | 155 | 247 | 752 |
| 5 | CCCS(=O)(=O)Nc1ccc(F)c(C(=O)c2c[nH]c3ncc(Cl)cc23)c1F at 0.4 µM | 84.5 | 129 | 168 | 164 | 127 | 545 |
| 6 | CC(C)C[C@H](NC(=O)[C@H](Cc1ccccc1)NC(=O)c1cnccn1)B(O)O at 0.005 µM | 2140 | 653 | 13600 | 2320 | 4260 | 365 |
| 7 | O=C(O)C(=O)Nc1sc2c(c1C(=O)O)CCNC2 at 8.33 µM | 137 | - | 122 | 126 | 26.5 | 133 |
| 8 | O=C(Nc1cccc(Cl)c1)Nc1ncc(CCNc2ncnc3ccsc23)s1 at 0.004 µM | 135 | 154 | 602 | 133 | 550 | 247 |
| 9 | CN(c1ncccc1CNc1nc(Nc2ccc3c(c2)CC(=O)N3)ncc1C(F)(F)F)S(C)(=O)=O at 0.4 µM | 126 | 202 | 287 | 121 | 147 | 231 |
| 10 | CNC(=O)c1cc(Oc2ccc(NC(=O)Nc3ccc(Cl)c(C(F)(F)F)c3)cc2)ccn1 at 2 µM | 119 | 96.1 | 355 | 275 | 185 | 355 |
| 11 | CCc1ccc(CCOc2ccc(CC3SC(=O)NC3=O)cc2)nc1 (stereo not shown) at 10 µM | 76.3 | - | 147 | 129 | 53.0 | 591 |
| 12 | NC(=O)c1ccc(N(C(N)=O)c2c(F)cccc2F)nc1-c1ccc(F)cc1F at 2 µM | 106 | 122 | 89.2 | 93.9 | 283 | 267 |
| 13 | CCCCCCCCCCCCCCCCCCOP(=O)([O-])OC1CC[N+](C)(C)CC1 at 2 µM | 61.0 | 92.6 | 156 | 127 | 112 | 262 |
| 14 | C[As](C)SC[C@H](NC(=O)CC[C@H](N)C(=O)O)C(=O)NCC(=O)O at 2 µM | 207 | 108 | 99.4 | 118 | 286 | 335 |
| 15 | COc1cc2c(Oc3ccc4[nH]c(C)cc4c3F)ncnc2cc1OCCCN1CCCC1 at 2 µM | 68.9 | 102 | 1970 | 150 | 56.2 | 422 |
| 16 | NC(=O)Nc1cc(-c2cccc(F)c2)sc1C(=O)N[C@H]1CCCNC1 at 0.1 µM | 210 | 122 | 85.2 | 159 | 144 | 148 |
| 17 | Cn1cc(C2=C(c3cn(C4CCN(Cc5ccccn5)CC4)c4ccccc34)C(=O)NC2=O)c2ccccc21 at 4 µM | 135 | 265 | 144 | 121 | 219 | 428 |
| 18 | Cc1cc([N+](=O)[O-])ccc1NS(=O)(=O)c1cc(Cl)ccc1Cl at 5 µM | 185 | - | 206 | 171 | 208 | 612 |
| 19 | C[C@@H](Oc1cc(-c2cnn(C3CCNCC3)c2)cnc1N)c1c(Cl)ccc(F)c1Cl at 1 µM | 77.7 | 275 | 191 | 139 | 375 | 317 |
| 20 | COc1ccc(C2=N[C@@H](c3ccc(Cl)cc3)[C@@H](c3ccc(Cl)cc3)N2C(=O)N2CCNC(=O)C2)c(OC(C)C)c1 at 0.5 µM | 66.4 | 201 | 39.5 | 102 | 144 | 330 |
| 21 | CS(=O)(=O)c1ccc(C(=O)Nc2ccc(Cl)c(-c3ccccn3)c2)c(Cl)c1 at 5 µM | 102 | 122 | 206 | 163 | 153 | 339 |
| 22 | Cn1c(=O)n(-c2ccc(C(C)(C)C#N)cc2)c2c3cc(-c4cnc5ccccc5c4)ccc3ncc21 at 0.02 µM | 108 | 109 | 393 | 124 | 459 | 377 |
| 23 | Cc1ccc(Nc2nccc(N(C)c3ccc4c(C)n(C)nc4c3)n2)cc1S(N)(=O)=O at 2 µM | 131 | 212 | 335 | 124 | 216 | 310 |

Once more, the final 3:

Second drug,MeWo,WM1745,G-361,WM3619,WM115,UACC-62
CS(=O)(=O)c1ccc(C(=O)Nc2ccc(Cl)c(-c3ccccn3)c2)c(Cl)c1 at 5 µM,102,122,206,163,153,339
Cn1c(=O)n(-c2ccc(C(C)(C)C#N)cc2)c2c3cc(-c4cnc5ccccc5c4)ccc3ncc21 at 0.02 µM,108,109,393,124,459,377
Cc1ccc(Nc2nccc(N(C)c3ccc4c(C)n(C)nc4c3)n2)cc1S(N)(=O)=O at 2 µM,131,212,335,124,216,310

From a melanoma drug combination screen (doi:10.1371/journal.pone.0140310); values rounded.